Assay results as given in US4933268A, “Silver halide photographic material having at least one dyed hydrophilic colloid layer” (Fuji Photo Film Co., Ltd., priority 1987, dated 1990).

Tests used:
[1] = Decoloring ratio of dye in mordant-containing gelatin layer after dipping in developer (Example 3); type: physicochemical; settings: with mordant; developer pH 10.20, 25 seconds at 35° C., washed 20 seconds
[2] = Fixing ratio of dye in mordant-containing gelatin layer after dipping in pH 7.0 buffer (Example 3); type: physicochemical; settings: with mordant; dipped in buffer pH 7.0 for 10 minutes at 25° C.
[3] = Decoloring ratio of dye in gelatin layer after dipping in developer (Example 1); type: physicochemical; settings: no mordant; dipped in developer one minute at 30° C., washed 10 seconds
[4] = Fixing ratio of dye in gelatin layer after dipping in distilled water (Example 1); type: physicochemical; settings: no mordant; dipped in distilled water of 50° C. for 30 seconds; from optical densities at absorption maximum
[5] = X-ray photographic material with dyed subbing layers: relative sensitivity and MTF (Example 4); settings: Mordant II-16; for Relative Sensitivity: coated amount (a) 15, (b) 17.5, (c) 14.2, I-9 17.8, I-8 18.4, I-15 18.3 mg/m^2, no dye = 100; for MTF in the Combination with G-4 Screen: same coated amounts as E7, 2.0 cycles/mm, optical density 1.0
[6] = X-ray photographic material, quick processing: relative sensitivity (Example 5); settings: quick process, dry to dry 48 sec.; coated amount B 17.5, C 14.2, I-9 17.8, I-8 18.4, I-15 18.4 mg/m^2
[7] = X-ray photographic material with formula (III) mordants: relative sensitivity and MTF (Example 6); settings: for Relative Sensitivity: Sample 1 without dye = 100
[8] = Mordant III-1, (b) 17.5, I-8 18.4 mg/m^2
[9] = Mordant III-15, (a) 15, I-8 18.4 mg/m^2
[10] = Mordant III-24, (c) 14.2, I-8 18.4 mg/m^2

Row | SMILES | Decoloring Ratio (%) [1] [%] | Fixing Ratio (%) [2] [%] | Decoloring Ratio [3] | Fixing Ratio [4] | further results
1 | CC(C)CNC(=O)C1=NN(Cc2ccccc2S(=O)(=O)O)C(=O)C1=CC=Cc1c(C(=O)NCC(C)C)nn(Cc2ccccc2S(=O)(=O)O)c1O [Dye 25] | 95 | 97 |  |  | 
2 | CC1=NN(c2ccc(S(=O)(=O)O)cc2)C(=O)C1=CC=Cc1c(C)nn(-c2ccc(S(=O)(=O)O)cc2)c1O [Comparison dye L, reference compound] | 55 | 85 |  |  | 
3 | CCCCNC(=O)C1=NN(c2ccc(S(=O)(=O)O)cc2)C(=O)C1=CC=Cc1c(C(=O)NCCCC)nn(-c2ccc(S(=O)(=O)O)cc2)c1O [Dye 10] |  |  | 90 | 92 | 
4 | CCCCCCNC(=O)C1=NN(c2ccc(S(=O)(=O)O)cc2)C(=O)C1=CC=CC=Cc1c(C(=O)NCCCCCC)nn(-c2ccc(S(=O)(=O)O)cc2)c1O [Dye 31] |  |  | 87 | 97 | 
5 | CCCCNC(=O)C1=NN(c2ccc(S(=O)(=O)O)cc2)C(=O)C1=CC=CC=Cc1c(C(=O)NCCCC)nn(-c2ccc(S(=O)(=O)O)cc2)c1O [Dye 43] | 97 | 95 |  |  | 
6 | CCOC(=O)C1=NN(CCS(=O)(=O)O)C(=O)C1=CC=Cc1c(C(=O)OCC)nn(CCS(=O)(=O)O)c1O [Comparison dye J, reference compound] | 9 | 30 |  |  | 
7 | O=C(O)C1=NN(S(=O)(=O)O)C(=O)C1=CC=Cc1c(C(=O)O)nn(S(=O)(=O)O)c1O [Comparison dye K, reference compound] | 65 | 75 |  |  | 
8 | CCCNC(=O)C1=NN(c2ccc(Oc3ccccc3)c(S(=O)(=O)O)c2)C(=O)C1=CC=CC=Cc1c(C(=O)NCCC)nn(-c2ccc(Oc3ccccc3)c(S(=O)(=O)O)c2)c1O [Comparison dye B, reference compound] |  |  | 88 | 50 | 
9 | CNC(=O)C1=NN(c2cccc(S(=O)(=O)O)c2)C(=O)C1=CC=Cc1c(C(=O)NC)nn(-c2cccc(S(=O)(=O)O)c2)c1O [Comparison dye A, reference compound] |  |  | 93 | 18 | 
10 | CCCNC(=O)C1=NN(c2ccc(S(=O)(=O)O)cc2)C(=O)C1=CC=CC=Cc1c(C(=O)NCCC)nn(-c2ccc(S(=O)(=O)O)cc2)c1O [Comparison Dye H, reference compound] | 80 | 98 |  |  | 
11 | CNC(=O)C1=NN(c2ccc(S(=O)(=O)O)cc2)C(=O)C1=CC=CC=Cc1c(C(=O)NC)nn(-c2ccc(S(=O)(=O)O)cc2)c1O [Comparison Dye G, reference compound] | 97 | 83 |  |  | 
12 | CCCCCCCC(=O)NC1=NN(c2cc(S(=O)(=O)O)ccc2S(=O)(=O)O)C(=O)C1=CC=Cc1c(NC(=O)CCCCCCC)nn(-c2cc(S(=O)(=O)O)ccc2S(=O)(=O)O)c1O [Comparison dye F, reference compound] |  |  | 75 | 93 | 
13 | O=C(NCCS(=O)(=O)O)C1=NN(c2ccc(S(=O)(=O)O)cc2)C(=O)C1=Cc1c(C(=O)NCCS(=O)(=O)O)nn(-c2ccc(S(=O)(=O)O)cc2)c1O [Comparison dye D, reference compound] |  |  | 98 | 15 | 
14 | CCCCC(=O)NC1=NN(c2ccc(S(=O)(=O)O)cc2)C(=O)C1=Cc1c(NC(=O)CCCC)nn(-c2ccc(S(=O)(=O)O)cc2)c1O [Dye 1] | 90 | 92 |  |  | 
15 | O=C1C(=CC=Cc2c(-c3ccccc3)nn(-c3ccc(S(=O)(=O)O)cc3)c2O)C(c2ccccc2)=NN1c1ccc(S(=O)(=O)O)cc1 [Comparison dye M, reference compound] | 20 | 98 |  |  | 
16 | O=C(Nc1ccccc1)C1=NN(c2ccc(S(=O)(=O)O)cc2)C(=O)C1=CC=Cc1c(C(=O)Nc2ccccc2)nn(-c2ccc(S(=O)(=O)O)cc2)c1O [Comparison dye C, reference compound] |  |  | 72 | 92 | 
17 | CCCCCC(=O)NC1=NN(c2ccc(S(=O)(=O)O)cc2)C(=O)C1=CC=CC=Cc1c(NC(=O)CCCCC)nn(-c2ccc(S(=O)(=O)O)cc2)c1O [Dye 29] | 96 | 97 | 90 | 91 | 
18 | CCCCNC(=O)C1=NN(Cc2ccccc2S(=O)(=O)O)C(=O)C1=CC=Cc1c(C(=O)NCCCC)nn(Cc2ccccc2S(=O)(=O)O)c1O [Dye 8] | 95 | 97 | 93 | 90 | Relative Sensitivity [5]: 91; MTF in the Combination with G-4 Screen [5]: 0.55; Relative Sensitivity [6]: 90; MTF in the Combination with G-4 Screen [7, 8]: 0.54; Relative Sensitivity [7, 8]: 89; MTF in the Combination with G-4 Screen [7, 9]: 0.54; Relative Sensitivity [7, 9]: 88; MTF in the Combination with G-4 Screen [7, 10]: 0.54; Relative Sensitivity [7, 10]: 91
19 | O=C(CCCCCCCO)NC1=NN(c2cccc(S(=O)(=O)O)c2)C(=O)C1=Cc1c(NC(=O)CCCCCCCO)nn(-c2cccc(S(=O)(=O)O)c2)c1O [Dye 12] |  |  | 89 | 88 | 
20 | CC(C)CCNC(=O)C1=NN(CCCS(=O)(=O)O)C(=O)C1=CC=Cc1c(C(=O)NCCC(C)C)nn(CCCS(=O)(=O)O)c1O [Dye 9] |  |  |  |  | Relative Sensitivity [5]: 91; MTF in the Combination with G-4 Screen [5]: 0.55; Relative Sensitivity [6]: 91
21 | CC(C)CC(=O)NC1=NN(c2ccc(S(=O)(=O)O)cc2)C(=O)C1=CC=Cc1c(NC(=O)CC(C)C)nn(-c2ccc(S(=O)(=O)O)cc2)c1O [Dye 15] |  |  | 92 | 91 | Relative Sensitivity [5]: 91; MTF in the Combination with G-4 Screen [5]: 0.55; Relative Sensitivity [6]: 90
22 | CC(=O)NC1=NN(c2ccc(S(=O)(=O)O)cc2)C(=O)C1=CC=Cc1c(NC(C)=O)nn(-c2ccc(S(=O)(=O)O)cc2)c1O [Comparison dye E, reference compound] |  |  | 94 | 20 | 
23 | CCC(C)NC(=O)C1=NN(c2ccc(S(=O)(=O)O)cc2)C(=O)C1=Cc1c(C(=O)NC(C)CC)nn(-c2ccc(S(=O)(=O)O)cc2)c1O (stereo not drawn) [Dye 11] | 92 | 92 |  |  | 
